Reference: paper PMC8136485, “Were Ancestral Proteins Less Specific?” (Molecular Biology and Evolution, 2021)
No constants are given. Whether binding was seen depends on the method and setting. Some entries that bind do so weakly or less than the wild type. Sequences can lack the tags named with a protein.

Target: T1, biotinylated human S100A5 (Ser-Asn-Cys N-terminus) (human) (UniProt P33763)
T1 sequence (chain, BMCC-biotin on the single N-terminal Cys (maleimide-thiol reaction)): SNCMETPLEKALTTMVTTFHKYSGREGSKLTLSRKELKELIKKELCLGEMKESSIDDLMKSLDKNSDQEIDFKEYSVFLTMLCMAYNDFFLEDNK
Experiment: phage display panning with deep sequencing; 0.01 μM biotin-protein with 5.5×10^11 PFU phage, 2 h room temperature, 50 mM TES, 100 mM NaCl, 2 mM CaCl2, 0.01% Tween-20, pH 7.4; captured on a streptavidin plate; eluted with 5 mM EDTA; with and without 20 μM competitor peptide; E from read …; only the target purified

B1: phage-displayed peptide … (M13 pIII fusion) (peptide)
peptide: EGLDLMSILELIGGGSAE
binding: binds
